Source: the supplement of paper PMC8975748
Structures can show the parent of a compound that is named as a salt. ± gives the standard deviation of the averaged measurements. The list shows a part of the results. These are raw signals, not scaled to a control.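 The yeast community starts from one strain carrying four plasmids, each with an amino-acid or uracil synthesis gene and a fluorescent protein. Random plasmid loss creates mixed prototroph and auxotroph subpopulations. Cells were fixed and counted by automated confocal fluorescence imaging, and DMSO-treated wells served as the vehicle reference.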 Numbered stars: 1 amine (or outer) side, 2 acyl side, 3 side chain; on linkers, the order of the positions; unused ones are H or OH. Bridge positions count the residues as written; N and C are the ends. Square brackets hold non-standard residues; d marks the D form. Peptide text beside a SMILES is read from it. * marks the point of attachment. pTerphenylCO(4''-OnC5H11) = CCCCCOc1ccc(-c2ccc(-c3ccc(C(=O)*)cc3)cc2)cc1; Orn(4R-OH,5R-OH) = O=C([C@H](C[C@@H](O)[C@@H](O)N[*:3])N[*:1])[*:2]; hTyr(3S-OH,4S-OH) = N[C@H](C(=O)O)[C@H](O)[C@@H](O)c1ccc(O)cc1; Pro(3S-OH,4S-Me) = C[C@H]1CN[C@H](C(=O)O)[C@H]1O; Hyp = O=C(O)[C@@H]1C[C@@H](O)CN1

Tested on: Saccharomyces cerevisiae BY4741 SeMeCo community
Experiment: imaged cell count per well (cells); higher = more cells
Conditions: 10 µM; 24 h; SM minimal medium
Method: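 Same SeMeCo high-content imaging drug screen: Selleck FDA-approved drugs at 10 µM, 24 h in SM medium, 384-well plates, 3 replicates.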

SMILES	imaged cell count per well
CN1C2CCCC1CC(NC(=O)c1nn(C)c3ccccc13)C2 (stereo not drawn) [Granisetron HCl]	31200 ± 3000
Nc1nc(N)nc(-c2cc(Cl)ccc2Cl)n1 [Irsogladine]	27400 ± 3700
COc1c(N2C[C@@H]3CCCN[C@@H]3C2)c(F)cc2c(=O)c(C(=O)O)cn(C3CC3)c12 [Moxifloxacin HCl]	23200 ± 7700
CC[C@H](c1ccc(O)cc1)[C@@H](CC)c1ccc(O)cc1 [Hexestrol]	23300 ± 2200
CCCCCOc1ccc(-c2ccc(-c3ccc(C(=O)N[C@H]4C[C@@H](O)[C@@H](O)NC(=O)[C@@H]5[C@@H](O)[C@@H](C)CN5C(=O)[C@H]([C@@H](C)O)NC(=O)[C@H]([C@H](O)[C@@H](O)c5ccc(O)cc5)NC(=O)[C@@H]5C[C@@H](O)CN5C(=O)[C@H]([C@@H](C)O)NC4=O)cc3)cc2)cc1 ({pTerphenylCO(4''-OnC5H11)}-[Orn(4R-OH,5R-OH)]T[Hyp][hTyr(3S-OH,4S-OH)]T[Pro(3S-OH,4S-Me)]; lactam 1-C)	2340 ± 1000
O=C(O)Cc1ccccc1Nc1c(Cl)cccc1Cl [Diclofenac Sodium]	19000 ± 2100
CCNC(=O)[C@@H]1CCCN1C(=O)[C@H](CCCNC(=N)N)NC(=O)[C@H](CC(C)C)NC(=O)[C@@H](CC(C)C)NC(=O)[C@H](Cc1ccc(O)cc1)NC(=O)[C@H](CO)NC(=O)[C@H](Cc1c[nH]c2ccccc12)NC(=O)[C@H](Cc1c[nH]cn1)NC(=O)[C@@H]1CCC(=O)N1 [Leuprolide Acetate]	22700 ± 7000
O=C(O)Cc1ccccc1Nc1c(Cl)cccc1Cl [Diclofenac Diethylamine]	20100 ± 4000
CCN(CC)CCOCCOC(=O)C1(c2ccccc2)CCCC1 [Pentoxyverine Citrate]	24400 ± 6400
NC(=O)N/N=C/c1ccc([N+](=O)[O-])o1 [Nitrofural]	13400 ± 7300
CCN1CCCC1CNC(=O)c1cc(S(N)(=O)=O)ccc1OC (stereo not drawn) [Sulpiride]	21600 ± 3100
C#CCN(C)Cc1ccccc1 [Pargyline hydrochloride]	19800 ± 5800
O=C(O)CCNC(=O)c1ccccc1 [Betamipron]	20500 ± 8300
CO/N=C(\C(=O)N[C@@H]1C(=O)N2C(C(=O)O)=C(COC(C)=O)CS[C@H]12)c1csc(N)n1 [Cefotaxime sodium]	23200 ± 3500
COc1ccc2c(c1)c(CC(=O)O)c(C)n2C(=O)c1ccc(Cl)cc1 [Indomethacin]	26200 ± 1600
Nc1nc2[nH]cc(CCc3ccc(C(=O)N[C@@H](CCC(=O)O)C(=O)O)cc3)c2c(=O)[nH]1 [Pemetrexed]	14800 ± 1400
O=C(c1ccc(OCCN2CCCCC2)cc1)c1c(-c2ccc(O)cc2)sc2cc(O)ccc12 [Raloxifene HCl]	30000 ± 2700
CC(C)c1nc(N(C)S(C)(=O)=O)nc(-c2ccc(F)cc2)c1/C=C/[C@@H](O)C[C@@H](O)CC(=O)O [Rosuvastatin Calcium]	9710 ± 1000
CCCc1cc(C(N)=S)ccn1 [Protionamide]	25600 ± 5000

Some of the entries above, set out differently.

| SMILES | imaged cell count per well |
| --- | --- |
| C#CCN(C)Cc1ccccc1 [Pargyline hydrochloride] | 19800 ± 5800 |
| O=C(O)CCNC(=O)c1ccccc1 [Betamipron] | 20500 ± 8300 |
| CO/N=C(\C(=O)N[C@@H]1C(=O)N2C(C(=O)O)=C(COC(C)=O)CS[C@H]12)c1csc(N)n1 [Cefotaxime sodium] | 23200 ± 3500 |

Next part

SMILES	imaged cell count per well
CS(=O)(=O)c1ccc(C2=C(c3ccccc3)C(=O)OC2)cc1 [Rofecoxib]	27200 ± 4800
CN(C)[C@@H]1C(O)=C(C(N)=O)C(=O)[C@@]2(O)C(O)=C3C(=O)c4c(O)cccc4[C@@](C)(O)[C@H]3[C@H](O)[C@@H]12 [Oxytetracycline Dihydrate]	20700 ± 3200
Cc1cc(C)nc(O)n1.O=C(Nc1ccc([N+](=O)[O-])cc1)Nc1ccc([N+](=O)[O-])cc1 [Nicarbazin]	28000 ± 6400
Nc1cc(C(Cl)=C(Cl)Cl)c(S(N)(=O)=O)cc1S(N)(=O)=O [Clorsulon]	20900 ± 5300
Cn1c(=O)c2c(ncn2CC2OCCO2)n(C)c1=O [Doxofylline]	26400 ± 17000
Cc1c[nH]c(=O)[nH]c1=O [Thymine]	18100 ± 6000
Nc1ccc(S(=O)(=O)Nc2ncccn2)cc1 [Sulfadiazine]	25500 ± 3700
CCCN[C@H]1CCc2nc(N)sc2C1 [Pramipexole dihydrochloride]	27500 ± 2200
Nc1nc2ccc(OC(F)(F)F)cc2s1 [Riluzole]	18500 ± 7200
CC1(C)S[C@@H]2[C@H](NC(=O)[C@H](NC(=O)N3CCN(S(C)(=O)=O)C3=O)c3ccccc3)C(=O)N2[C@H]1C(=O)O [Mezlocillin Sodium]	25200 ± 7000
CSc1nc2cc(Cl)c(Oc3cccc(Cl)c3Cl)cc2[nH]1 [Triclabendazole]	4930 ± 750
C=C1CC[C@@H]2[C@](C)(CO)[C@H](O)CC[C@@]2(C)[C@H]1C/C=C1\C=COC1=O [Dehydroandrographolide]	25100 ± 1200
CCOC(=O)C1=C(COCCN)NC(C)=C(C(=O)OC)C1c1ccccc1Cl (stereo not drawn) [Amlodipine Besylate]	24600 ± 4400
CC(=O)O[C@H]1C[C@@]2(C)[C@@H](C[C@@H](O)[C@H]3[C@@]4(C)CC[C@@H](O)[C@@H](C)[C@@H]4CC[C@@]32C)/C1=C(\CCC=C(C)C)C(=O)O [Fusidine]	25100 ± 2200
CN(C)CCC=C1c2ccccc2C=Cc2ccccc21 [Cyclobenzaprine HCl]	18900 ± 4900
COc1ccc(C(Cl)=C(c2ccc(OC)cc2)c2ccc(OC)cc2)cc1 [Chlorotrianisene]	15000 ± 4300
C[n+]1ccccc1C=NO [Pralidoxime Iodide]	26400 ± 4900
CCCc1nn(C)c2c(=O)[nH]c(-c3cc(S(=O)(=O)N4CCN(C)CC4)ccc3OCC)nc12 [Sildenafil Citrate]	23700 ± 3200
CN(C)CCCN1c2ccccc2CCc2ccc(Cl)cc21 [Clomipramine HCl]	15800 ± 2600
